This experiment addresses DHX9 (human (endogenous in BC cell lines)) (UniProt Q08211). The experiment can be described thus: co-IP; whole-cell lysates (200-400 ug protein) of BC cells with 1-2 ug anti-DHX9, anti-RFFL or control IgG overnight, protein A/G agarose beads 1 h at 4 °C, western blotting; endogenous proteins; also in cells with LINC01016 overexpressed or knocked down (Fig. 5K).

By UniProt entry, the sequences of proteins in these tests, tags left out.
UniProt Q08211: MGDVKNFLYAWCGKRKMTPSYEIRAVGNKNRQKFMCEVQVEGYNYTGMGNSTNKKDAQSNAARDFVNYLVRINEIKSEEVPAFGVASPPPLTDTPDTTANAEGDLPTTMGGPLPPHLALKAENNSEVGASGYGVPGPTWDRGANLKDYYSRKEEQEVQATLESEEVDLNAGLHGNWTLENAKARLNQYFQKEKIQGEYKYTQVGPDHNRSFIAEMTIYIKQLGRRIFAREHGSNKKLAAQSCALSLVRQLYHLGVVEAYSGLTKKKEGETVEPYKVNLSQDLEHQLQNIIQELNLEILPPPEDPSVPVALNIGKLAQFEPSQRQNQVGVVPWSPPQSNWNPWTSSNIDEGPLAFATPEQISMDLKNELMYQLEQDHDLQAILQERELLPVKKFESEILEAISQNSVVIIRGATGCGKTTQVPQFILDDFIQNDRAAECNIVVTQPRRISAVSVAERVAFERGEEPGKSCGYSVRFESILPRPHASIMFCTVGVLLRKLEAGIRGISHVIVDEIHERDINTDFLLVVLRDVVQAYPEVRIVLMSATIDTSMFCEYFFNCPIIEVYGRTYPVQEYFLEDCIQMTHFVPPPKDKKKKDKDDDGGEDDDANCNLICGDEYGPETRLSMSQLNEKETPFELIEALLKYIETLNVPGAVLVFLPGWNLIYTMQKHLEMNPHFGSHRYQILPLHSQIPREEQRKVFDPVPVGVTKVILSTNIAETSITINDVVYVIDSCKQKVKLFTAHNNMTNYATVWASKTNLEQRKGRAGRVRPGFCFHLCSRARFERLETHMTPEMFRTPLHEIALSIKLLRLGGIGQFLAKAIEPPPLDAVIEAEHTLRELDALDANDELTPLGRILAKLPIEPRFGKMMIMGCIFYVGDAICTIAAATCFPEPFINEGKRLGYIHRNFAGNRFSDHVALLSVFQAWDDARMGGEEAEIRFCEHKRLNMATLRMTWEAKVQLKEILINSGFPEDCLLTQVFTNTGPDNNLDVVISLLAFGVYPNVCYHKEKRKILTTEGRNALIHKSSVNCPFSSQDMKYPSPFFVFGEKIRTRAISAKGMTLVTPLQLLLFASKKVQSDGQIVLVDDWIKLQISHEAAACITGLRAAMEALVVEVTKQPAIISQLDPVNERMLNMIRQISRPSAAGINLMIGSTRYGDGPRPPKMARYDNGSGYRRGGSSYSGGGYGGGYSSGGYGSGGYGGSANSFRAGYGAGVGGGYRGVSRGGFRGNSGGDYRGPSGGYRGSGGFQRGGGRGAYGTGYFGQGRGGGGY

Results are given in words; binding and its absence hold for the method and conditions named. In cells and extracts the contact can be indirect. Some entries that bind do so weakly or less than the wild type.

Consider one molecule from PMC10406855.

B1: RING finger and FYVE-like domain-containing protein 1 (RFFL) (protein, UniProt Q8WZ73 1-363)
chain: MWATCCNWFCLDGQPEEVPPPQGARMQAYSNPGYSSFPSPTGLEPSCKSCGAHFANTARKQTCLDCKKNFCMTCSSQVGNGPRLCLLCQRFRATAFQREELMKMKVKDLRDYLSLHDISTEMCREKEELVLLVLGQQPVISQEDRTRASTLSPDFPEQQAFLTQPHSSMVPPTSPNLPSSSAQATSVPPAQVQENQQANGHVSQDQEEPVYLESVARVPAEDETQSIDSEDSFVPGRRASLSDLTDLEDIEGLTVRQLKEILARNFVNYKGCCEKWELMERVTRLYKDQKGLQHLVSGAEDQNGGAVPSGLEENLCKICMDSPIDCVLLECGHMVTCTKCGKRMNECPICRQYVIRAVHVFRS
As for B1, the binding entry is listed as “binds”.
